Measured values from PubChem BioAssay AID2685 (National Center for Advancing Translational Sciences (NCATS), 2010).
Some of the results follow. These are further read-outs of the screen, such as a control signal, another cell line or another target. No call is given for them. The list favours compounds with an active or inconclusive main result. Potencies come from curve fits of mixed quality, noted in brackets.

Experiment: qHTS Assay for Lipid Storage Modulators in Drosophila S3 Cells;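 for cell number change: cells counted by Cell Tracker Red CMTPX staining in the red channel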
Conditions: BODIPY lipid droplet fluorescence, 18-24 h; for cell number change: measured here: cell count max response, cells fed with added oleic acid
Summary of the method: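 Drosophila S3 cells got compounds at several concentrations plus oleic acid (400 uM solution). Laser-scanning cytometry with 488 nm excitation read lipid droplets at 500-530 nm and cells at 575-640 nm. Percent activity was relative to 20 uM Triacsin C.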

[1] = measured here: lipid fluorescence (Fed channel) AC50, cells fed with added oleic acid
[2] = measured here: cell number channel AC50, cells fed with added oleic acid

Compound | cell number change [%] | AC50 [1] | AC50 [2]
CCCSc1ccc([C@@H]2[C@@H]3C(=O)N(C)C(=O)[C@@H]3[C@]3(C(=O)OC)CCCN23)cc1OC | -16.9 | 1.16 µM [falling, full curve, poor fit] | –
COc1ccc(NC(=O)CCC(=O)Nc2nnc(CC(C)C)s2)cc1Cl | – | 29.1 µM [rising, single point] | –
O=C(Nc1ccc(Cl)c(Cl)c1)Nc1ccccn1 | 31 | – | 18.4 µM [rising, single point]
Cc1ccccc1-n1nnnc1SCC(=O)Nc1ccc(S(=O)(=O)N2CCCC2)cc1 | – | 0.116 µM [falling, full curve, poor fit] | –
CCOc1cc2c(C#N)c(N3CCCCC3)nc(N)c2c(N)n1 | 2.09 | 0.00517 µM [rising, full curve, poor fit] | 0.461 µM [rising, full curve]
Cc1sc2ncn(CC(=O)NCCCC(=O)N3CCC(C)CC3)c(=O)c2c1C | 18.9 | – | –
Cc1ccc(N(C(C)C(=O)N2CCC(C)CC2)S(C)(=O)=O)cc1C (stereo unspecified) | -20.2 | – | 0.82 µM [falling, full curve, poor fit]
O=C(CCNC(=O)c1ccccc1Cl)NCC1COc2ccccc2O1 (stereo unspecified) | -7.23 | – | –
Cc1ccc(CNC(=O)CCNS(=O)(=O)c2cccc3nonc23)cc1 | 33.1 | – | 13 µM [rising, single point]
Cc1ccc2c(c1)C1CN(C)CCC1N2S(=O)(=O)c1ccc(C(C)C)cc1 (stereo unspecified) | 1.3 | 32.6 µM [rising, single point] | –
Cc1cc(C)nc(NC(=O)c2ccc(Br)s2)n1 | 11.4 | – | –
CCOc1ccc(N(CC(=O)NC(C)(C)C)C(=O)CCC(=O)Nc2nccs2)cc1 | 0.787 | – | –
O=C(NCc1ccco1)c1cc(-c2ccc3c(c2)OCO3)on1 | 12.4 | 2.31 µM [rising, partial curve] | –
COc1ccc(OC)c(C(=O)NC(CC(N)=O)c2ccc(NCC3CC3)c([N+](=O)[O-])c2)c1 (stereo unspecified) | 14.1 | 6.51 µM [rising, partial curve] | –
CC1CCN(c2oc(-c3ccccc3F)nc2C#N)CC1 | – | – | 1.64 µM [rising, partial curve]
O=C(NC1CCCC1)C(c1ccco1)N(Cc1ccccc1)C(=O)c1csnn1 (stereo unspecified) | 77.9 | 18.4 µM [rising, single point] | 29.1 µM [rising, single point]
CCOC(=O)c1cc(-c2ccc(/C=N\n3cnnc3)o2)ccc1Cl | – | – | 0.291 µM [rising, partial curve, poor fit]
O=C(Nc1nnc(SCc2ccc(Cl)cc2)s1)C1CCCO1 (stereo unspecified) | – | 0.116 µM [falling, full curve, poor fit] | –
Cc1[nH]c(=O)c(C#N)c(C)c1CCC(=O)NCc1cccc(C(F)(F)F)c1 | -7.56 | 0.164 µM [falling, partial curve, poor fit] | –
COc1ccccc1NC(=O)COc1ccc(C(=O)OCC(=O)N2CCCC2=O)cc1OC | -18.6 | 0.259 µM [rising, partial curve, poor fit] | –

Copied from the list:
O=C(NCc1ccco1)c1cc(-c2ccc3c(c2)OCO3)on1 | AC50 [1]: 2.31 µM [rising, partial curve]
COc1ccc(OC)c(C(=O)NC(CC(N)=O)c2ccc(NCC3CC3)c([N+](=O)[O-])c2)c1 (stereo unspecified) | cell number change [%]: 14.1
CCOc1ccc(N(CC(=O)NC(C)(C)C)C(=O)CCC(=O)Nc2nccs2)cc1 | cell number change [%]: 0.787

Further results.

Compound | cell number change [%] | AC50 [1] | AC50 [2]
CN(Cc1ccccc1F)C(=O)CCCNC(=O)c1ccc(Cl)cc1 | -41.1 | – | –
COc1ccc(Cn2ccnc2SCC(=O)NC2CCCCC2)cc1 | 26.7 | 2.91 µM [rising, single point] | –
CC(=O)CC(=O)Nc1ccc(C(N)=O)cc1 | -0.603 | 0.00517 µM [falling, full curve, poor fit] | –
CC(=O)c1sc(NC(=O)C=C(C)C)nc1C | – | 0.58 µM [rising, single point] | –
Cc1ccc(C2=NOC(C)(c3nnc(-c4ccc(Cl)cc4)o3)C2)cc1 (stereo unspecified) | 12.7 | 11.6 µM [rising, single point] | –
CC1CCCN(C(=O)C(=O)c2cn(CC(=O)N3CCCCCC3)c3ccccc23)C1 (stereo unspecified) | -9.24 | 0.0116 µM [falling, full curve, poor fit] | –
Cc1ccc2[nH]c3c(c2c1)CN(C(=O)CN1CCN(c2ccccn2)CC1)CC3 | -22.1 | – | –
COc1ccccc1-c1nc(SCC(=O)N2CCOCC2)n[nH]1 | 4.5 | – | –
Cc1ccc(/C=C2/NC(=O)N(Cc3ccccc3)C2=O)s1 | 43.2 | 29.1 µM [rising, single point] | 20.6 µM [rising, single point]
Nc1cc(N)nc(SCC(=O)NCCC2=CCCCC2)n1 | -2.88 | – | –
O=C(CSc1nncs1)NC1CCCCCCC1 | 3.11 | 29.1 µM [rising, single point] | –
CC(C)CCN1C(=O)c2ccc(C(=O)Nc3cc(C(=O)O)cc(C(=O)O)c3)cc2C1=O | -24.5 | – | –
O=C(Nc1ccc2c(c1)CCC2)Nc1ccc(F)cc1F | 20.5 | 29.1 µM [rising, single point] | –
COc1cccc2cc(C(=O)N3CCc4ccccc4C3)c(=O)oc12 | 71.1 | – | 0.92 µM [rising, partial curve, poor fit]
COc1cc(NC(=S)N2CCCCC2C)cc(OC)c1OC (stereo unspecified) | 21.5 | 0.651 µM [falling, single point] | 0.651 µM [falling, single point]
O=C(NCc1ccccn1)c1ccc2ccccc2n1 | 3.53 | 10.3 µM [rising, partial curve] | –
Cc1ccc(C(=O)N2CCN(c3ccc(NC(=O)c4cccs4)cc3)CC2)cc1 | -47.3 | 13 µM [falling, partial curve, poor fit] | 16.4 µM [falling, single point]
CCCn1c(SCC(=O)NCCc2ccc(Cl)cc2Cl)n[nH]c1=O | – | 0.259 µM [falling, full curve, poor fit] | –
COc1cc(Cl)c(C)cc1NC(=O)CSC | -1.7 | 23.1 µM [rising, single point] | 1.16 µM [falling, partial curve, poor fit]
CC(C)n1cnnc1SCC(=O)Nc1ccc(N2CCCCC2)cc1 | 43.6 | 11.6 µM [rising, partial curve, poor fit] | 1.84 µM [rising, partial curve, poor fit]
